# Drug screen on melanoma cell lines: cell count

From a melanoma drug combination screen (doi:10.1371/journal.pone.0140310); values rounded.

First drug in all entries: MK-2206, 400 nM, NC1(c2ccc(-c3nc4ccn5c(=O)[nH]nc5c4cc3-c3ccccc3)cc2)CCC1

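Human melanoma cell lines in 1,536-well plates were treated with two drugs together for 72 h, then fixed, stained and imaged. Each value is the count of nuclei relative to DMSO-treated wells, in %, so that 100 equals the control. Every drug was used at one fixed concentration, the lower of two screened (a fifth of the higher). No replicate spread is given; individual values may be noisy.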
This is part of the screen, not chosen by result.
An entry leaves out what has no value listed here.
A dash means that no value is listed here.

With Cn1cnc2c(F)c(Nc3ccc(Br)cc3Cl)c(C(=O)NOCCO)cc21 at 15 nM the screen read G-361: 72.4; A101D: 78.4. For COCC[n+]1c2c(n(Cc3cnccn3)c1C)C(=O)c1ccccc1C2=O at 0.4 nM the values were G-361: 83.0; A101D: 79.7. For Nc1nc(F)nc2c1ncn2[C@@H]1O[C@H](CO)[C@@H](O)[C@@H]1O at 200 nM the values were G-361: 85.1; A101D: 77.8. CO[C@H]1C[C@@H]2CC[C@@H](C)[C@@](O)(O2)C(=O)C(=O)N2CCCC[C@H]2C(=O)O[C@H]([C@H](C)C[C@@H]2CC[C@@H](OCCO)[C@H](OC)C2)CC(=O)[C@H](C)/C=C(\C)[C@@H](O)[C@@H](OC)C(=O)[C@H](C)C[C@H](C)/C=C/C=C/C=C/1C at 20 nM gave G-361: 53.2; A101D: 70.5. For CS(=O)(=O)CCNCc1ccc(-c2ccc3ncnc(Nc4ccc(OCc5cccc(F)c5)c(Cl)c4)c3c2)o1 at 800 nM the values were G-361: 89.2; A101D: 90.1. Cn1c(Nc2ccc(C(F)(F)F)cc2)nc2cc(Oc3ccnc(-c4ncc(C(F)(F)F)[nH]4)c3)ccc21 at 80 nM gave G-361: 68.1; A101D: 55.4.

Results for N.N.[Cl][Pt][Cl] at 1600 nM are G-361: 85.7; A101D: 88.8. Results for CCCCCCCCCCCCCCCCCCOP(=O)([O-])OC1CC[N+](C)(C)CC1 at 400 nM are G-361: 91.4; A101D: 89.9. With C[C@@H](N)c1ccc(C(=O)Nc2ccnc3[nH]ccc23)cc1 at 400 nM the screen read G-361: 92.9; A101D: 95.2. Results for C#Cc1cccc(Nc2ncnc3cc(OCCOC)c(OCCOC)cc23)c1 at 800 nM are G-361: 84.3; A101D: 98.6. With COc1cc([C@@H]2c3cc4c(cc3[C@@H](O[C@@H]3O[C@@H]5CO[C@@H](C)O[C@H]5[C@H](O)[C@H]3O)[C@H]3COC(=O)[C@H]23)OCO4)cc(OC)c1O at 20 nM the screen read G-361: 69.0; A101D: 87.7. For O=C(Nc1cc(C(F)(F)F)cc(C(F)(F)F)c1)c1cc(Cl)ccc1O at 16 nM the values were G-361: 83.6; A101D: 75.0.

CC(C)C[C@H](NC(=O)[C@H](Cc1ccccc1)NC(=O)c1cnccn1)B(O)O at 1 nM gave G-361: 45.5; A101D: 43.6. Results for Cc1ccc(Nc2nccc(N(C)c3ccc4c(C)n(C)nc4c3)n2)cc1S(N)(=O)=O at 400 nM are G-361: 97.0; A101D: 92.1. With CC1(C)CCC(c2ccc(Cl)cc2)=C(CN2CCN(c3ccc(C(=O)NS(=O)(=O)c4ccc(N[C@H](CCN5CCOCC5)CSc5ccccc5)c(S(=O)(=O)C(F)(F)F)c4)cc3)CC2)C1 at 400 nM the screen read G-361: 92.3. For CC(=O)c1c(C)c2cnc(Nc3ccc(N4CCNCC4)cn3)nc2n(C2CCCC2)c1=O at 40 nM the values were G-361: 77.0; A101D: 69.1. With Nc1ccn([C@@H]2O[C@H](CO)[C@@H](O)C2(F)F)c(=O)n1 at 0.4 nM the screen read G-361: 70.6; A101D: 92.2. CN(c1ncccc1CNc1nc(Nc2ccc3c(c2)CC(=O)N3)ncc1C(F)(F)F)S(C)(=O)=O at 80 nM gave G-361: 91.8; A101D: 80.0.

Results for Cn1nnc2c(C(N)=O)ncn2c1=O at 2000 nM are G-361: 109; A101D: 103.

Some entries from above, unchanged:

Partner	G-361	A101D
Cn1nnc2c(C(N)=O)ncn2c1=O at 2000 nM	109	103
CC1(C)CCC(c2ccc(Cl)cc2)=C(CN2CCN(c3ccc(C(=O)NS(=O)(=O)c4ccc(N[C@H](CCN5CCOCC5)CSc5ccccc5)c(S(=O)(=O)C(F)(F)F)c4)cc3)CC2)C1 at 400 nM	92.3	-